The results in this text go back to ChEMBL document CHEMBL4825722, “Discovery of Potent Selective Nonzinc Binding Autotaxin Inhibitor BIO-32546” (ACS Med Chem Lett, 2021).

Values after ≈ are worked out from the molar mass of the structure shown.

One series addresses Autotaxin (Homo sapiens, UniProt Q13822). Briefly: Inhibition of human ATX assessed as reduction in LPA formation using FS-3 as substrate preincubated for 30 mins followed by substrate addition and measured after 2 hrs by FRET assay.
Series [1] addresses T1, hERG (KCNH2) (Homo sapiens, UniProt Q12809). Briefly: Inhibition of human ERG at 1 uM by automated patch-clamp assay relative to control. A general note: In patch-clamp work, channel activity is measured electrically.
Series [2] deals with T1, hERG (KCNH2). Briefly: Inhibition of human ERG at 10 uM by automated patch-clamp assay relative to control.
A short description of series [3]: Solubility of the compound at pH 7.0 by shake flask method. As to conditions: buffer.

As a reminder, the IC50 is the midpoint of a concentration-inhibition curve. What is called inhibition is the share of the control response that was lost under treatment. Read a low inhibition as little suppression. As a reminder, the thermodynamic solubility is the concentration in solution at equilibrium with solid.

For the molecule `C[C@@H](c1ccc2ccc(O[C@H]3CC[C@@H](C)CC3)c(C(F)(F)F)c2c1)N1C2CCC1CC(C(=O)O)C2` (some centres not stated), on Autotaxin, the IC50 came to 0.0014 µM. In addition, the inhibition at 1 µM at hERG (KCNH2) [1] is 2.2%. Moreover, 10 µM produced 21.9% inhibition against hERG (KCNH2) [2]. Moreover, the thermodynamic solubility in series [3] was 27 µg/mL (≈ 55.1 µM).

Turning to `C[C@H](c1ccc2ccc(O[C@H]3CC[C@@H](C)CC3)c(C(F)(F)F)c2c1)N1C2CCC1CC(C(=O)O)C2` (some centres not stated), the IC50 at Autotaxin was determined as 0.23 µM. On hERG (KCNH2) [1], 1 µM produced 4.5% inhibition. This molecule also showed an inhibition at 10 µM at hERG (KCNH2) [2] of 25.6%.
